Experimental data reported in patent publication US20260071003A1.
Results are given in words; binding and its absence hold for the method and conditions named. Some entries that bind do so weakly or less than the wild type.

Columns and labels:
[1] = molecular target: T1, Haptoglobin related protein (Hpr), as a component of purified human Trypanosome Lytic Factor (TLF) / human HDL float (human) (UniProt P00739); assay: Western blot of column purified TLF (2 ug), non-reducing SDS-PAGE
T1 sequence: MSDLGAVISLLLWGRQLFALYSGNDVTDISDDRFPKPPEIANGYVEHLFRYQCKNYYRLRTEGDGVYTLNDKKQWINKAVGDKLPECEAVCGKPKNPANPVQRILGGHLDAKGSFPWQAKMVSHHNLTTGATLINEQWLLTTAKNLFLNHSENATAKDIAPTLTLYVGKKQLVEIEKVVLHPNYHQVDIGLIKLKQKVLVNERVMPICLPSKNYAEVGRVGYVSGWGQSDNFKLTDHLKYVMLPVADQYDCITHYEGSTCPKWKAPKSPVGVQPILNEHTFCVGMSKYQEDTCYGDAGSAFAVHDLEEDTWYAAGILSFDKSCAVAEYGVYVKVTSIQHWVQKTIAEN

[2] = molecular target: ApoL1 Protein, human recombinant (Sino Biological 13910-H08B) (human) (UniProt O14791); assay: Western blot of recombinant ApoL1, non-reducing and reducing
[3] = molecular target: ApoL1 Protein, human recombinant (Sino Biological 13910-H08B) (human) (UniProt O14791); assay: dot blot (native)
[4] = molecular target: T2, native human Apolipoprotein L1 (ApoL1), in purified TLF / HDL float / normal human serum / endogenous in culture (human) (UniProt O14791); assay: Western blot of column purified TLF (2 ug), non-reducing and reducing
T2 sequence: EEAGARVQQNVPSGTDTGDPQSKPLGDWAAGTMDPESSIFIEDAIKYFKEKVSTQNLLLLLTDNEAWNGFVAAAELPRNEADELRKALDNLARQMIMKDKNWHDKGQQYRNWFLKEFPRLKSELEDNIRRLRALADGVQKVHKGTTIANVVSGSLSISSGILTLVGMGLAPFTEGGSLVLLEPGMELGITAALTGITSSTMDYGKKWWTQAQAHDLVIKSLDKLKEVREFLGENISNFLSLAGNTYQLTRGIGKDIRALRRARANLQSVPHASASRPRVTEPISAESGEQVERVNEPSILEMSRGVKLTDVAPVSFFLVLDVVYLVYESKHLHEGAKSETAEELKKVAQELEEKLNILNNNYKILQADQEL

[5] = molecular target: ApoL1 Protein, human recombinant (Sino Biological 13910-H08B) (human) (UniProt O14791); assay: dot blot (native) of recombinant ApoL1

B1: recombinant anti-Hpr antibody, clone SFII 134.3 (antibody, V domains shown)
VH: QIQLVQSGPELKKPGETVKISCKASGYIFTNYGMNWVRQAPGKGLKWMGWINSYTGEATYTDDLKGRFAFSLESSASTAYLQINNLKNEDTATYFCAREGYGDYGYSFDYWGQGTTLTVSS
VL: DIQMTQSPASLSASVGETVTITCRATKNIYTYLAWYQQKQGKSPQFLVYNAKTLAEGVPSRFSGSGSGTQFSLKINSLQPEDFGNYYCQHHYGTPRTFGGGTKLEIK
For B1, the binding [1] was “binds”.

B2: ascites Prot-G purified anti-Hpr antibody, clone SFII 134.3 (mouse IgG2a) (antibody, V domains shown)
VH: B1 VH
VL: DIQMTQSPASLSASVGETVTITCRATKNIYTYLAWYQQKQGKSPQFLVYNAKTLAEGVPSRFSGSGSGTQFSLKINSLQPEDFGNYYCQHHYGTPRTFGGGTKLEIKR
B2 was tested, and the binding [1] was “binds”.

B3: recombinant anti-ApoL1 antibody, clone SFIII 13.11 (antibody, V domains shown)
VH: EVQLVESGGGLVKPGGSLKLSCAASGFTFSTYAMSWVRQSPEKRLEWVAEISNGGLYTYYPDTVTGRFTISRDNVKNILYLEMSSLRSEDTAIYYCIRENRNWYFDLWGAGTTVTVSS
VL: DVLMTQTPLSLPVSLGDQASISCRSSQSIVNSNGNTYLEWYLQKPGQSPKLLIYKVSNRFSGVPDRFSGSGSGTDFTLKISRVEAEDLGVYYCFQGSHVPLTFGAGTKLELK
With B3 the binding [2] was “binds”, the binding [3] was “binds” and the binding [4] was “binds”. For the same binder, the binding [5] was “binds”.
